Assay results reported in the supplement of paper PMC10849652.
The list shows a part of the results. Residues, ends and D or L forms follow the SMILES beside them. *: point of attachment. Cbz = O=C(OCc1ccccc1)*

The chains behind the UniProt entries cited, without tags or fusion partners. Where a name states a change or a piece, a line headed by the entry shows the natural chain unless it says otherwise.
UniProt P47756, whole entry, looked up: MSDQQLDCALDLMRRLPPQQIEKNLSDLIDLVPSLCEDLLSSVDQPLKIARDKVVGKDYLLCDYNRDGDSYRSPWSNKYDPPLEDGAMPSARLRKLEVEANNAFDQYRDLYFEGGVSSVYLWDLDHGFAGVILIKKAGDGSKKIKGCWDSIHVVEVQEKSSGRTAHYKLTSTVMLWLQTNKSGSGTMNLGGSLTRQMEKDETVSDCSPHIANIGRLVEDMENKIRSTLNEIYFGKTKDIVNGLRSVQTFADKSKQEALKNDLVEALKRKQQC
UniProt O95873: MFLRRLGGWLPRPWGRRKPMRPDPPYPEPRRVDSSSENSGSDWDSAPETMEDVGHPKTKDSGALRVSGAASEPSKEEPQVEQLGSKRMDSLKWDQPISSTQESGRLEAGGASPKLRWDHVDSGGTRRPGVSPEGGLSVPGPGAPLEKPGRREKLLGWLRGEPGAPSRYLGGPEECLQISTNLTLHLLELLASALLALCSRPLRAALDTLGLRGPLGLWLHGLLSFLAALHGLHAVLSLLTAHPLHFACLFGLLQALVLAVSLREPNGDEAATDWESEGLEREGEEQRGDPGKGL
UniProt P35219: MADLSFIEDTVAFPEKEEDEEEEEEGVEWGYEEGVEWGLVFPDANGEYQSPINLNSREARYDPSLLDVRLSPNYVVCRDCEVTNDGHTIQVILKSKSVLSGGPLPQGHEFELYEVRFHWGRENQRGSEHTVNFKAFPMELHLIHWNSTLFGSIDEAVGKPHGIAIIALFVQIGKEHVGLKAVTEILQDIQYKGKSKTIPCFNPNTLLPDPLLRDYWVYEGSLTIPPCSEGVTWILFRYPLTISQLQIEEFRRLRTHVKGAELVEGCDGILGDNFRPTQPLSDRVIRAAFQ
UniProt Q5SQH8: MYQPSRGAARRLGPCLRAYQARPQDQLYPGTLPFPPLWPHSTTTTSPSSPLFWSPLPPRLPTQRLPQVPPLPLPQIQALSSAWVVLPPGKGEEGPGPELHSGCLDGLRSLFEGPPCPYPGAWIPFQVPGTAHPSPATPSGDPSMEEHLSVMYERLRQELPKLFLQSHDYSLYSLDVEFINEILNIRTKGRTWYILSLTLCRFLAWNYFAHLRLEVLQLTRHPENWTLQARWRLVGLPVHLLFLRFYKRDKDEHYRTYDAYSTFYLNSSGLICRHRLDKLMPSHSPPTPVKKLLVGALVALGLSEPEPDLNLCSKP
UniProt Q96RR4, whole entry, looked up: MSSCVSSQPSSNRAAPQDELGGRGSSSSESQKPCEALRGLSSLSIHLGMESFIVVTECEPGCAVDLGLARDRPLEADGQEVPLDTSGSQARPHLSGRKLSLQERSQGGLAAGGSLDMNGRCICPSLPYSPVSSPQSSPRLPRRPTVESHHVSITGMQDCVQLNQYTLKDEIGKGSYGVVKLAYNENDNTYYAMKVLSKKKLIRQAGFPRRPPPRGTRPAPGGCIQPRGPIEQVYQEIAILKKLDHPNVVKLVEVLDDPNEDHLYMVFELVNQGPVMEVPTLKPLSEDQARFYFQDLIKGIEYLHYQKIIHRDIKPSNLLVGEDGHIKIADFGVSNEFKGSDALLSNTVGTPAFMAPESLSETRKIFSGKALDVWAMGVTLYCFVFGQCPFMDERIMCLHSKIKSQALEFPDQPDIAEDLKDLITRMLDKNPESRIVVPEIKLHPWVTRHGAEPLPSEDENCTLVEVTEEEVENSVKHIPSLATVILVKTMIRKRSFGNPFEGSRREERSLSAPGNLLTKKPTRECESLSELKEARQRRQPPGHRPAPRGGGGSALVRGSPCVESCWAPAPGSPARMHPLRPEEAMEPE
UniProt Q10589, whole entry, looked up: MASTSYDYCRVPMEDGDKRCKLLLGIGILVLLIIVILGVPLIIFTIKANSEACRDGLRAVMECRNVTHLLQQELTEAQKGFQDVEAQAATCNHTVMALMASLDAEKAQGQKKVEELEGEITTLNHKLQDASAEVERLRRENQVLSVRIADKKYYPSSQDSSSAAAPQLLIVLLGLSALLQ
UniProt Q9Y6E2: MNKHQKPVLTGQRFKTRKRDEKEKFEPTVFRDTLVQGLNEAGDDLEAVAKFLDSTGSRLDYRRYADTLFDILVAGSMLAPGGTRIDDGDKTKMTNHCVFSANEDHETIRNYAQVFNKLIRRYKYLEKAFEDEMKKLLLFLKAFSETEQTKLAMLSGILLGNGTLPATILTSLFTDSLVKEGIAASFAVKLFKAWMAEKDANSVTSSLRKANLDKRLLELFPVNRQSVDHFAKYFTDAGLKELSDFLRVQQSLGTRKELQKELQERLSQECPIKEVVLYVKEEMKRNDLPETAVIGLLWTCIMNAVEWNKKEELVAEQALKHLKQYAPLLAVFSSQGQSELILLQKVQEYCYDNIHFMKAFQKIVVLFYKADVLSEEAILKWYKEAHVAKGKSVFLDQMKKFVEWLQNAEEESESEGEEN
UniProt Q7L1Q6: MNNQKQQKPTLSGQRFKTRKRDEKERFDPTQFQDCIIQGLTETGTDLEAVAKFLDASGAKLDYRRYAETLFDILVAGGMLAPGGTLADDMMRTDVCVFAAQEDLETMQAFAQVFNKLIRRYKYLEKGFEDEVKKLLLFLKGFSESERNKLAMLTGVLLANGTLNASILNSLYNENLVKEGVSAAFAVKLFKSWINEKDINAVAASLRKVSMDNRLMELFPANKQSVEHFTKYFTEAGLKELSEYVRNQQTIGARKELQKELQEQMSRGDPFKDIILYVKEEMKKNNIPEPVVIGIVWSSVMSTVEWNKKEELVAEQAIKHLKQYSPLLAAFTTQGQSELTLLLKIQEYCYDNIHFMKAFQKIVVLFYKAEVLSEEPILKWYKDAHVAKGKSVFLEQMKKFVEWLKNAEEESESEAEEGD
UniProt Q8N1A6: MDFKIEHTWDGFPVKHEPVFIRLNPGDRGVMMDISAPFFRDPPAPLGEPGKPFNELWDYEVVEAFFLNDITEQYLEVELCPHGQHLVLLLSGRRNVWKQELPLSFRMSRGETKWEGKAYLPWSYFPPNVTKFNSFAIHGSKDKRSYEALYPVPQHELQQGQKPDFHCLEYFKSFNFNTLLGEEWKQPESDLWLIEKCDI
UniProt Q9H9S4: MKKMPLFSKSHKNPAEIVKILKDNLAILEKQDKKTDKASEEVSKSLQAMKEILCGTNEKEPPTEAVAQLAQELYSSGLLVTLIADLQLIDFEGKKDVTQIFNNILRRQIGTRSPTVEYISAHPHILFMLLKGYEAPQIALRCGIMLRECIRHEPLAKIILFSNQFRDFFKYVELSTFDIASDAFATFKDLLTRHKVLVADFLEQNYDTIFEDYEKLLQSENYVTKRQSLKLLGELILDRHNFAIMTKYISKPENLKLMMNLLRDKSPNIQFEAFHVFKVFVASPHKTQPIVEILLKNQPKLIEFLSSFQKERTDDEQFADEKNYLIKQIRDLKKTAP
UniProt P0C0L4: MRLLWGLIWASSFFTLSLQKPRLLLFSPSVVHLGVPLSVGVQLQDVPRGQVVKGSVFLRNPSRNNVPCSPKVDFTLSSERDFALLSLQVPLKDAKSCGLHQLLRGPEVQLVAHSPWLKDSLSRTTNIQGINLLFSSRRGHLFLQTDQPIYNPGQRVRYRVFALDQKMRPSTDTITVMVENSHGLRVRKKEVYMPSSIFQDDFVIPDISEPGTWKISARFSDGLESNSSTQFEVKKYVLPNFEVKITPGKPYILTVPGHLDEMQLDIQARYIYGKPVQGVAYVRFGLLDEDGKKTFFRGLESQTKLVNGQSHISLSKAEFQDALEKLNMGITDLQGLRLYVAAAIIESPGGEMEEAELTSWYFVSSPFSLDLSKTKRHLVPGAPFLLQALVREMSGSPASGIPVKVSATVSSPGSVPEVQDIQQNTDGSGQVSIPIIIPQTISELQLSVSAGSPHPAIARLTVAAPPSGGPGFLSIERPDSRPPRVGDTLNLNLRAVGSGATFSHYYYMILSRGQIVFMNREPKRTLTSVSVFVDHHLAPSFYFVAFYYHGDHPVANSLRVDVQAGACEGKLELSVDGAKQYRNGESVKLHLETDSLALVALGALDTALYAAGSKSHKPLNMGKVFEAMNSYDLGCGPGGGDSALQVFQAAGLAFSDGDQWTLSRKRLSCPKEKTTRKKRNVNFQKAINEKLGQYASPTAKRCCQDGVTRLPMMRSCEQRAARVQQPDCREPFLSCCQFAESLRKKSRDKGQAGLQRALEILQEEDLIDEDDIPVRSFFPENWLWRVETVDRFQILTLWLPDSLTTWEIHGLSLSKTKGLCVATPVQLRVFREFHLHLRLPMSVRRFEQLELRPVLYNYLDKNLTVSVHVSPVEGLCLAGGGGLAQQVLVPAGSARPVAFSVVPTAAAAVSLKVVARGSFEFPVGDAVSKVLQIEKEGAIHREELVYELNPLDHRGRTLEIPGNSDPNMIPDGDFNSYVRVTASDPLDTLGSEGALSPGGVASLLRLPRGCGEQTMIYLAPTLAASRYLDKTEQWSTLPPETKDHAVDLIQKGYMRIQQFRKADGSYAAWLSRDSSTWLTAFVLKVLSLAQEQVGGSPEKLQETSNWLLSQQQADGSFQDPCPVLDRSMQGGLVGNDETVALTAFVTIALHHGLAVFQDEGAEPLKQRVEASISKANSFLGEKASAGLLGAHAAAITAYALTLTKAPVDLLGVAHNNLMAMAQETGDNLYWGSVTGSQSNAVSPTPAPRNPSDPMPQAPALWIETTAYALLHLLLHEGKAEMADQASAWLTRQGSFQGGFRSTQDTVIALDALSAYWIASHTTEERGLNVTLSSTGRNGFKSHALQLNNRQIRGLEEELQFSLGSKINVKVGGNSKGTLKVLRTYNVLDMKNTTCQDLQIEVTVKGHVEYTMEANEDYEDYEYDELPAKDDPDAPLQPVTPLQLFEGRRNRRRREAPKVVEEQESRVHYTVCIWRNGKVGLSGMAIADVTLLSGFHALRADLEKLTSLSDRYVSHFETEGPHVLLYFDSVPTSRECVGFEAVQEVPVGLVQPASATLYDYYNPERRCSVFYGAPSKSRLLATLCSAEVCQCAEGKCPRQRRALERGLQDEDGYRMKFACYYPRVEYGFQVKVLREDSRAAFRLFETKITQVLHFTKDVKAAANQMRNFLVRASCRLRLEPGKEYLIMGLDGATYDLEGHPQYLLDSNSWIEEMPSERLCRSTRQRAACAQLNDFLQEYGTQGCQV
UniProt Q13895: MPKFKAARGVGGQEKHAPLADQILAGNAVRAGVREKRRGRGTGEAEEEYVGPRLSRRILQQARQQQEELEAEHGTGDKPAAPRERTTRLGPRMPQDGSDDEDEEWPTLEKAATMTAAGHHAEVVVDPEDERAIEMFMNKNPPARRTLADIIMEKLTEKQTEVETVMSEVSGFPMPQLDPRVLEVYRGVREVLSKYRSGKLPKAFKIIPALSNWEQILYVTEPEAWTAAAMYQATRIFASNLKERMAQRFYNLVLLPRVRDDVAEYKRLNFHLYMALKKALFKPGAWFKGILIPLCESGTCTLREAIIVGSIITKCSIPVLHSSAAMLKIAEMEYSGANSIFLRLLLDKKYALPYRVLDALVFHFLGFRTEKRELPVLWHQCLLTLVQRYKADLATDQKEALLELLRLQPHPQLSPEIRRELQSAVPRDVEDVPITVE
UniProt P05937: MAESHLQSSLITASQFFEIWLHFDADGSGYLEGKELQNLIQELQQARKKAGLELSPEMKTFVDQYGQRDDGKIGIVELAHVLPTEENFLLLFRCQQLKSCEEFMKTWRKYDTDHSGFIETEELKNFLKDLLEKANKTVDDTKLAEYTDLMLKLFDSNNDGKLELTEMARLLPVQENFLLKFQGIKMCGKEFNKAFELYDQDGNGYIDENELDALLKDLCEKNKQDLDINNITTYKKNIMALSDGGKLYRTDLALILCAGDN
UniProt Q9H8G2: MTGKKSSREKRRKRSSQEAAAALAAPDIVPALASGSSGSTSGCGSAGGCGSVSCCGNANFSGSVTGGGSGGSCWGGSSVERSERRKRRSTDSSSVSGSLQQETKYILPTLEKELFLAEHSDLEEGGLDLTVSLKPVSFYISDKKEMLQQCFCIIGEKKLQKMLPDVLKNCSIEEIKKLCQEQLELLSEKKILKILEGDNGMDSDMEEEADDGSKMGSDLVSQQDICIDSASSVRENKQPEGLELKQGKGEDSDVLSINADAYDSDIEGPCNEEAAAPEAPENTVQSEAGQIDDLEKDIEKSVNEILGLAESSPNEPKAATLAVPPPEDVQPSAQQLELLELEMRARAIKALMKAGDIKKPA
UniProt Q96GQ5: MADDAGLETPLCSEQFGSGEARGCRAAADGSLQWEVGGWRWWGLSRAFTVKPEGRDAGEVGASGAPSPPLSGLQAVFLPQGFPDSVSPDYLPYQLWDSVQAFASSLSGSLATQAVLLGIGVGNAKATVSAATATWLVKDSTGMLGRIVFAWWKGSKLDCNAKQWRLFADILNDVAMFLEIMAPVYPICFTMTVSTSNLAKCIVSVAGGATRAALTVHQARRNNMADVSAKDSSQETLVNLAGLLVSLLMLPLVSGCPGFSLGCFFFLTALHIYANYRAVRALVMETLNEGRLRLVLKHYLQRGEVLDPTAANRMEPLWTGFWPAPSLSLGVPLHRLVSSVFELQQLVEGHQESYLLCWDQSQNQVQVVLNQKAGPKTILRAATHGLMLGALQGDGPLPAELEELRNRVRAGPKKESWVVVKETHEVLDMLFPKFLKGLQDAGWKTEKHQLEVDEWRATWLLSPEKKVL

Tests used:
Experiment in all cases: log2 fold change, soluble protein after heating vs DMSO (PISA); higher = thermal stabilisation; K562 cells, 10 uM, 30 min; active = over 0.2 and 3.5 SD of the protein, either way, in both replicates (recomputed)
IRAK-1-4 Inhibitor I = compound: C1COCCN1CCN2C3=CC=CC=C3N=C2NC(=O)C4=CC(=CC=C4)[N+](=O)[O-] [IRAK-1-4 Inhibitor I]
How it was run: (§1)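 Values are thermal stability changes relative to control samples and are taken from duplicates. They are stated as log2 fold changes. Before quantification by TMTpro 16plex LC-MS/MS with equalised channel sums, K562 cells at 2×10^6 cells/mL were treated with 10 μM compound for 30 min, heated in aliquots for 3 min across 48°C-58°C, pooled, extracted in PBS with 0.5% NP-40 at 4°C, and centrifuged at 21,000xg for 90 min to give the soluble supernatant.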

ibrutinib = compound: C=CC(=O)N1CCC[C@@H](n2nc(-c3ccc(Oc4ccccc4)cc3)c3c(N)ncnc32)C1 [ibrutinib]
How it was run: as §1

[1] = compound: CC(=O)c1cnc2ccc(-c3cc(Cl)c(O)c(Cl)c3)nc2c1N[C@H]1CC[C@H](CN(C)C)CC1
How it was run: as §1

ralimetinib = compound: CC(C)(C)Cn1c(N)nc2ccc(-c3[nH]c(C(C)(C)C)nc3-c3ccc(F)cc3)nc21 [ralimetinib]
How it was run: as §1

[2] = compound: CC(C)(O)CC(=O)NCCn1ccc2ncnc(Nc3ccc(Oc4cccc(C(F)(F)F)c4)c(Cl)c3)c21
How it was run: as §1

[3] = compound: CC(C)C1=C2N=C(C=C(N2N=C1)NCC3=CC=CC=C3)NCCCCCCN
How it was run: as §1

[4] = compound: CC(C)C[C@@H](C=O)NC(=O)[C@H](CC(C)C)NC(=O)[C@H](CC(C)C)NC(=O)OCc1ccccc1
How it was run: as §1

pinometostat = compound: CC(C)N(C[C@H]1O[C@@H](n2cnc3c(N)ncnc32)[C@H](O)[C@@H]1O)[C@H]1C[C@@H](CCc2nc3cc(C(C)(C)C)ccc3[nH]2)C1 [pinometostat]
How it was run: as §1

[5] = compound: CC1=C(C(CC(=O)N1)C2=CC=C(C=C2)C(F)(F)F)C(=O)NC3=C(C=C4C(=C3)C=NN4)F
How it was run: as §1

[6] = compound: CC1=C(C2=C(C=C1)C(=O)C3=CC=CC=C3N2CCCN)C
How it was run: as §1

[7] = compound: CC1=C(C=C(C=C1)NC(=O)C2=CC(=CC=C2)C(C)(C)C#N)NC3=CC4=C(C=C3)N=CN(C4=O)C
How it was run: as §1

[8] = compound: CC1=C(C=C(C=C1)NC(=O)C2=CC(=CC=C2)N(C)C)NC(=O)C3=CC=C(C=C3)O
How it was run: as §1

[9] = compound: CC1=CC=C(C=C1)SC2=C3C=C(SC3=CN=C2)C(=O)N
How it was run: as §1

[10] = compound: CC1=NC(=CC=C1)C2=C(N=C(N2)C(C)(C)C)C3=CC4=NC=CN=C4C=C3
How it was run: as §1

Nexturastat A = compound: CCCCN(Cc1ccc(C(=O)NO)cc1)C(=O)Nc1ccccc1 [Nexturastat A]
How it was run: as §1

vemurafenib = compound: CCCS(=O)(=O)Nc1ccc(F)c(C(=O)c2c[nH]c3ncc(-c4ccc(Cl)cc4)cc23)c1F [vemurafenib]
How it was run: as §1

[11] = compound: CCCS(=O)(=O)Nc1ccc(F)c(C(=O)c2c[nH]c3ncc(Cl)cc23)c1F
How it was run: as §1

[12] = compound: CCCc1cc(C)[nH]c(=O)c1CNC(=O)c1cc(-c2ccnc(N3CCN(C)CC3)c2)cc2c1cnn2C(C)C
How it was run: as §1

givinostat = compound: CCN(CC)Cc1ccc2cc(COC(=O)Nc3ccc(C(=O)NO)cc3)ccc2c1 [givinostat]
How it was run: as §1

barasertib = compound: CCN(CCCOc1ccc2c(Nc3cc(CC(=O)Nc4cccc(F)c4)[nH]n3)ncnc2c1)CCOP(=O)(O)O [barasertib]
How it was run: as §1

Row | Target | log2 fold change (IRAK-1-4 Inhibitor I) | log2 fold change (ibrutinib) | log2 fold change [1] | log2 fold change (ralimetinib) | log2 fold change [2] | log2 fold change [3] | log2 fold change [4] | log2 fold change (pinometostat) | log2 fold change [5] | log2 fold change [6] | log2 fold change [7] | log2 fold change [8] | log2 fold change [9] | log2 fold change [10] | log2 fold change (Nexturastat A) | log2 fold change (vemurafenib) | log2 fold change [11] | log2 fold change [12] | log2 fold change (givinostat) | log2 fold change (barasertib)
1 | CAPZB (UniProt P47756) | inactive: 0.038 | inactive: 0.002 | inactive: 0.005 | inactive: -0.03 | inactive: -0.015 | inactive: 0.037 | inactive: 0.01 | inactive: -0.009 | inactive: 0.009 | inactive: 0.021 | inactive: 0.033 | inactive: 0.037 | inactive: 0.009 | inactive: 0.013 | inactive: -0.081 | inactive: -0.014 | inactive: -0.01 | inactive: -0.001 | inactive: -0.025 | inactive: 0.005
2 | C6orf47 (UniProt O95873) | inactive: 0.044 | inactive: 0 | inactive: 0.037 | inactive: -0.098 | inactive: 0.009 | inactive: -0.047 | inactive: -0.019 | inactive: -0.057 | inactive: 0.017 | inactive: 0.008 | inactive: 0 | inactive: 0.003 | inactive: -0.042 | inactive: 0.001 | inactive: -0.108 | inactive: -0.053 | inactive: -0.019 | inactive: -0.208 | inactive: -0.025 | inactive: 0.013
3 | CA8 (UniProt P35219) | inactive: 0.027 | inactive: 0.004 | inactive: -0.091 | inactive: 0.033 | inactive: -0.036 | inactive: -0.056 | inactive: 0.011 | inactive: -0.008 | – | inactive: -0.046 | inactive: -0.024 | inactive: -0.081 | inactive: 0.041 | inactive: 0.006 | inactive: -0.058 | inactive: 0.004 | inactive: 0.02 | inactive: -0.002 | inactive: 0.077 | inactive: 0.034
4 | C6orf136 isoform 4 (UniProt Q5SQH8) | inactive: 0.038 | inactive: 0.467 | inactive: -0.048 | inactive: 0.025 | – | inactive: 0.186 | inactive: -0.069 | inactive: 0.051 | inactive: -0.207 | inactive: 0.141 | inactive: -0.166 | inactive: -0.021 | – | inactive: 0.107 | – | – | – | inactive: -0.39 | inactive: 0.114 | inactive: -0.01
5 | CAMKK2 (UniProt Q96RR4) | inactive: -0.05 | inactive: -0.069 | inactive: 0.131 | inactive: -0.117 | inactive: 0.002 | inactive: 0.069 | inactive: -0.052 | inactive: 0.142 | – | inactive: -0.025 | inactive: 0.022 | inactive: 0.024 | inactive: -0.044 | inactive: -0.009 | inactive: 0.154 | inactive: 0.037 | inactive: -0.043 | inactive: 0.277 | inactive: -0.017 | inactive: 0.058
6 | BST2 (UniProt Q10589) | inactive: -0.004 | inactive: 0 | inactive: -0.109 | inactive: 0.033 | inactive: 0.025 | inactive: -0.108 | inactive: 0.12 | inactive: -0.006 | – | inactive: 0.017 | inactive: 0.059 | inactive: 0.014 | inactive: -0.003 | inactive: -0.011 | inactive: 0.023 | inactive: 0 | inactive: -0.029 | inactive: -0.095 | inactive: 0.053 | inactive: -0.097
7 | BZW2 (UniProt Q9Y6E2) | inactive: 0.04 | inactive: -0.043 | inactive: 0 | inactive: -0.016 | inactive: -0.121 | inactive: -0.163 | inactive: -0.003 | inactive: -0.011 | – | inactive: 0.014 | inactive: 0.009 | inactive: -0.007 | inactive: 0.043 | inactive: 0.062 | inactive: -0.034 | inactive: 0.012 | inactive: 0.058 | inactive: -0.025 | inactive: 0.011 | inactive: 0.044
8 | BZW1 isoform 3 (UniProt Q7L1Q6) | inactive: -0.118 | inactive: -0.123 | inactive: 0.005 | inactive: 0.049 | inactive: -0.296 | active: -0.422 | inactive: 0.007 | inactive: 0.123 | – | inactive: 0.068 | inactive: 0.064 | inactive: -0.014 | inactive: 0.036 | inactive: 0.038 | inactive: 0.016 | inactive: 0.107 | inactive: 0.126 | inactive: 0.105 | inactive: 0.084 | inactive: 0.06
9 | C9orf64 (UniProt Q5T6V5) | inactive: -0.041 | inactive: -0.03 | inactive: -0.019 | inactive: -0.018 | inactive: -0.181 | inactive: -0.288 | inactive: 0.012 | inactive: 0.053 | – | inactive: -0.097 | inactive: 0.014 | inactive: -0.014 | inactive: 0.029 | inactive: 0.001 | inactive: 0.029 | inactive: -0.032 | inactive: 0.079 | inactive: -0.036 | inactive: 0.064 | inactive: 0.08
10 | C4orf33 (UniProt Q8N1A6) | inactive: 0.038 | inactive: 0.137 | inactive: -0.049 | inactive: -0.073 | inactive: 0.005 | inactive: -0.076 | inactive: 0.032 | inactive: 0 | – | inactive: -0.03 | inactive: -0.101 | inactive: 0.04 | inactive: 0.049 | inactive: -0.049 | inactive: 0.018 | inactive: -0.01 | inactive: -0.082 | inactive: 0.07 | inactive: 0.055 | inactive: 0.03
11 | CAB39L (UniProt Q9H9S4) | inactive: 0.018 | inactive: 0.001 | inactive: -0.126 | inactive: 0.057 | inactive: -0.152 | inactive: -0.024 | inactive: 0.032 | inactive: 0.102 | – | inactive: -0.483 | inactive: -0.142 | inactive: -0.008 | inactive: 0.004 | inactive: -0.043 | inactive: 0.003 | inactive: -0.013 | inactive: -0.001 | – | inactive: -0.025 | inactive: 0.043
12 | C4A (UniProt P0C0L4) | inactive: 0.017 | inactive: 0.08 | inactive: -0.01 | inactive: -0.083 | inactive: 0.226 | inactive: 0.111 | inactive: 0.01 | inactive: -0.11 | – | inactive: -0.192 | inactive: -0.154 | inactive: 0.19 | inactive: 0.111 | inactive: 0.215 | inactive: -0.008 | inactive: 0.148 | inactive: -0.02 | inactive: -0.287 | inactive: 0.001 | inactive: 0.021
13 | BYSL (UniProt Q13895) | inactive: -0.115 | inactive: -0.054 | inactive: 0.043 | inactive: 0.051 | inactive: -0.11 | inactive: -0.109 | inactive: 0.092 | inactive: 0.118 | – | active: -0.495 | inactive: 0.04 | inactive: -0.042 | inactive: -0.01 | inactive: 0.016 | inactive: 0.14 | inactive: 0.079 | inactive: 0.032 | inactive: -0.024 | inactive: 0.167 | inactive: 0.014
14 | CALB1 (UniProt P05937) | inactive: 0.016 | inactive: -0.033 | inactive: 0.017 | inactive: -0.078 | inactive: -0.052 | active: -0.245 | inactive: -0.017 | inactive: -0.043 | – | inactive: -0.148 | inactive: -0.004 | inactive: 0.032 | inactive: 0.027 | inactive: 0.042 | inactive: -0.023 | inactive: 0.057 | inactive: 0.019 | inactive: 0.011 | inactive: -0.031 | inactive: 0.037
15 | CAMK2G isoform 6 (UniProt Q13555) | inactive: -0.008 | inactive: 0.004 | inactive: 0.181 | inactive: 0.118 | inactive: 0.039 | inactive: -0.016 | inactive: 0.038 | inactive: 0.067 | – | inactive: 0.063 | inactive: 0.048 | inactive: -0.055 | inactive: 0.131 | inactive: -0.011 | inactive: 0.094 | inactive: -0.026 | inactive: 0.11 | inactive: 0.15 | inactive: 0.025 | inactive: 0.065
16 | CAAP1 (UniProt Q9H8G2) | inactive: 0.073 | inactive: -0.127 | inactive: 0.044 | inactive: 0.144 | inactive: 0.265 | inactive: 0.099 | inactive: 0.108 | inactive: 0.047 | inactive: -0.021 | inactive: -0.06 | inactive: -0.066 | inactive: 0.165 | inactive: -0.022 | inactive: -0.268 | inactive: 0.244 | inactive: 0.067 | inactive: -0.054 | – | inactive: -0.019 | inactive: 0.046
17 | C16orf58 (UniProt Q96GQ5) | inactive: 0.031 | inactive: -0.022 | inactive: 0.01 | inactive: -0.017 | inactive: -0.045 | inactive: -0.199 | inactive: 0.001 | inactive: 0.005 | – | inactive: 0.045 | inactive: -0.04 | inactive: 0.001 | inactive: 0.021 | inactive: 0.003 | inactive: -0.049 | inactive: -0.007 | inactive: 0.005 | inactive: -0.075 | inactive: -0.012 | inactive: -0.011

An excerpt from above with just log2 fold change (givinostat):
Row	Target	log2 fold change (givinostat)
5	CAMKK2 (UniProt Q96RR4)	inactive: -0.017
6	BST2 (UniProt Q10589)	inactive: 0.053
